Assay results: patent US20240261378A1
These are yes or no findings as the source states them, for the method shown. In cells and extracts the contact can be indirect. Some results given as binding are weak or reduced against the parent protein; the word gives no strength. Tags and fused reporters may be left off the sequences shown.

Protein sequences, listed by entry. Tags and fused reporters are not part of them.
UniProt Q86VP1: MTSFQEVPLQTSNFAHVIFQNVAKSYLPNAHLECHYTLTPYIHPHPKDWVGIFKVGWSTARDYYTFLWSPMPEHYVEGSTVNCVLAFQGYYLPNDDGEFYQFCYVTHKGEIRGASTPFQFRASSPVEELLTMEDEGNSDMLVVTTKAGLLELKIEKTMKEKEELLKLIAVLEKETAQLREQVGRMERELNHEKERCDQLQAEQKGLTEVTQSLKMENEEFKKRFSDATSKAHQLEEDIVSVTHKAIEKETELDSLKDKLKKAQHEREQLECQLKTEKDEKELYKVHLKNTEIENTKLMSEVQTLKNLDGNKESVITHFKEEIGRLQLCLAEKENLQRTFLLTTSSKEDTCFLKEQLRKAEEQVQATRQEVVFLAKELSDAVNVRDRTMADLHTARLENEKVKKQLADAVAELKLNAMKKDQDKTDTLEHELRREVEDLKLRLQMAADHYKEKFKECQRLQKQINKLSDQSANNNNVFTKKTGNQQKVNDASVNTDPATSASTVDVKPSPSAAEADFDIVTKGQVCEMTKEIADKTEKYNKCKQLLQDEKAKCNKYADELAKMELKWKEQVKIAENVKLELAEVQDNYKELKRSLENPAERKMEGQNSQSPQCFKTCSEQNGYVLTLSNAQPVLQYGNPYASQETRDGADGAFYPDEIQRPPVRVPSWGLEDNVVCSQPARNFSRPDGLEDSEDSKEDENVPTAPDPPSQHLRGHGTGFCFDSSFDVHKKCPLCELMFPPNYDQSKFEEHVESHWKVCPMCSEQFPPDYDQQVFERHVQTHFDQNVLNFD

What was measured:
NDP52 = target: T1, NDP52 (UniProt Q13137); experiment: GST-galectin-8 pull-down with Sequestosome 1-like receptors
T1 sequence (looked up): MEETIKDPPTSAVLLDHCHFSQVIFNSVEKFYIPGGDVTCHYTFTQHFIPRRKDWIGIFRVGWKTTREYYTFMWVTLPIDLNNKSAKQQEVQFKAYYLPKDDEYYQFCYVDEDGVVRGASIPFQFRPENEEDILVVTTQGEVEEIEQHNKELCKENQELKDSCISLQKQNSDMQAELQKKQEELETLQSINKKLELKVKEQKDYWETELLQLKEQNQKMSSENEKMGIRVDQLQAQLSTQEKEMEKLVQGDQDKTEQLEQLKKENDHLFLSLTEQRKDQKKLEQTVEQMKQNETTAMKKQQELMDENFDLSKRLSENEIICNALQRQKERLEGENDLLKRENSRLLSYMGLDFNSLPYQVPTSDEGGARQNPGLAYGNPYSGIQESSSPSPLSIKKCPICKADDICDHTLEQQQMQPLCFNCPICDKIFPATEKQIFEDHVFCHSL

TAX1BP1 = TAX1BP1 (UniProt Q86VP1); experiment: as above

- binding (NDP52): binds
- binding (TAX1BP1): binds
B1: GST-Galectin-8 (protein, not shown: a dimerising Fc or GST)
chain: MMLSLNNLQNIIYNPVIPFVGTIPDQLDPGTLIVIRGHVPSDADRFQVDLQNGSSMKPRADVAFHFNPRFKRAGCIVCNTLINEKWGREEITYDTPFKREKSFEIVIMVLKDKFQVAVNGKHTLLYGHRIGPEKIDTLGIYGKVNIHSIGFSFSSDLQSTQASSLELTEISRENVPKSGTPQLPSNRGGDISKIAPRTVYTKSKDSTVNHTLTCTKIPPMNYVSKRLPFAARLNTPMGPGRTVVVKGEVNANAKSFNVDLLAGKSKDIALHLNPRLNIKAFVRNSFLQESWGEEERNITSFPFSPGMYFEMIIYCDVREFKVAVNGVHSLEYKHRFKELSSIDTLEINGDIHLLEVRSW
